Assay results from paper doi:10.1101/2020.01.09.900548.
Results are given in words; binding and its absence hold for the method and conditions named. Binding seen in cells or lysates may run through a third protein. Some results given as binding are weak or reduced against the parent protein; the word gives no strength. Tags and fused reporters may be left off the sequences shown. Each block holds one molecule with its values, some of them ahead of it.

The chains behind the UniProt entries cited, without tags or fusion partners.
UniProt Q92769, whole entry: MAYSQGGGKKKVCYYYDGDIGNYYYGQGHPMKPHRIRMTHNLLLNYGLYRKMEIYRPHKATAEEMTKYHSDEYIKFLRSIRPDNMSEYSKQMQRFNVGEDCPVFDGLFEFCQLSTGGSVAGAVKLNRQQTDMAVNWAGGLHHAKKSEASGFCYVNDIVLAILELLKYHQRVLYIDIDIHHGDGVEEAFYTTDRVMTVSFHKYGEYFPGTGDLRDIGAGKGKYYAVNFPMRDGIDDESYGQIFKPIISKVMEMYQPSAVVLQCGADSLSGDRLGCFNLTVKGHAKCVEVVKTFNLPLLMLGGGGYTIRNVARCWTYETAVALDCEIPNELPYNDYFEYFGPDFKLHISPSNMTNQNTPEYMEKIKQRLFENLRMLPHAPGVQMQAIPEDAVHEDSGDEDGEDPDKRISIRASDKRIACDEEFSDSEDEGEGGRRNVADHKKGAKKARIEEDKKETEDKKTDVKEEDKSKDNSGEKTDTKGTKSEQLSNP
UniProt Q13547, whole entry: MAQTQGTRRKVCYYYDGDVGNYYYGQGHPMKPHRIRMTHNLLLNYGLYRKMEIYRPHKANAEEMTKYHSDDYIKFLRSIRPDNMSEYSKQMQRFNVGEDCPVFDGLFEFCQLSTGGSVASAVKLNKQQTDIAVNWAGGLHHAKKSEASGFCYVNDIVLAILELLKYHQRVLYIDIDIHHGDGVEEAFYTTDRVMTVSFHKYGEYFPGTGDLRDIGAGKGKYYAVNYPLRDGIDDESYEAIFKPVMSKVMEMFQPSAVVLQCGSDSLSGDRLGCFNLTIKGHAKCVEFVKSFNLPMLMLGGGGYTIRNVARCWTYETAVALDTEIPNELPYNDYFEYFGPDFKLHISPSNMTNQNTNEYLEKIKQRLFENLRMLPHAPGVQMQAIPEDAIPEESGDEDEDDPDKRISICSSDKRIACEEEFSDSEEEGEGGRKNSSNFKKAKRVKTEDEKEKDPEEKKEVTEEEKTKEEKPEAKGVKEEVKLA

What was measured:
[1] = target: T1, FLAG-tagged ZNF704 (FLAG-ZNF704), stably expressed in MDA-MB-231 cells (human) (UniProt Q6ZNC4); test: co-IP + SEC
T1 sequence: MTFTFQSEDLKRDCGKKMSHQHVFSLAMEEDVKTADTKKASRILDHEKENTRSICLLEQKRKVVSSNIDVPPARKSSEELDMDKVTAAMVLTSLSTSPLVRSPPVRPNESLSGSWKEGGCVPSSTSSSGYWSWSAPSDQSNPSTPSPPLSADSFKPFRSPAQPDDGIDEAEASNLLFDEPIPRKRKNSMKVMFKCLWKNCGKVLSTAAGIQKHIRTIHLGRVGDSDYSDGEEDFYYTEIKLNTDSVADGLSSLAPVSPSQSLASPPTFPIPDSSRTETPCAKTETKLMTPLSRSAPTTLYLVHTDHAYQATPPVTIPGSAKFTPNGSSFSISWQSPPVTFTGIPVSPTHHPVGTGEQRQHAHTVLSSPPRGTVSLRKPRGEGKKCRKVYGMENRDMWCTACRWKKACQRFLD

[2] = target: T2, GST-fused ZNF704 (GST-ZNF704) (human) (UniProt Q6ZNC4); test: pull-down
T2 sequence: T1 sequence

Molecule: HDAC2, endogenous in MDA-MB-231 cells (from UniProt Q92769 1-488) (enzyme)
binding [1]: binds

B2: SAP130, in vitro transcribed/translated (protein, UniProt Q9H0E3 1-1048)
chain: MGPPRHPQAGEIEAGGAGGGRRLQVEMSSQQFPRLGAPSTGLSQAPSQIANSGSAGLINPAATVNDESGRDSEVSAREHMSSSSSLQSREEKQEPVVVRPYPQVQMLSTHHAVASATPVAVTAPPAHLTPAVPLSFSEGLMKPPPKPTMPSRPIAPAPPSTLSLPPKVPGQVTVTMESSIPQASAIPVATISGQQGHPSNLHHIMTTNVQMSIIRSNAPGPPLHIGASHLPRGAAAAAVMSSSKVTTVLRPTSQLPNAATAQPAVQHIIHQPIQSRPPVTTSNAIPPAVVATVSATRAQSPVITTTAAHATDSALSRPTLSIQHPPSAAISIQRPAQSRDVTTRITLPSHPALGTPKQQLHTMAQKTIFSTGTPVAAATVAPILATNTIPSATTAGSVSHTQAPTSTIVTMTVPSHSSHATAVTTSNIPVAKVVPQQITHTSPRIQPDYPAERSSLIPISGHRASPNPVAMETRSDNRPSVPVQFQYFLPTYPPSAYPLAAHTYTPITSSVSTIRQYPVSAQAPNSAITAQTGVGVASTVHLNPMQLMTVDASHARHIQGIQPAPISTQGIQPAPIGTPGIQPAPLGTQGIHSATPINTQGLQPAPMGTQQPQPEGKTSAVVLADGATIVANPISNPFSAAPAATTVVQTHSQSASTNAPAQGSSPRPSILRKKPATDGAKPKSEIHVSMATPVTVSMETVSNQNNDQPTIAVPPTAQQPPPTIPTMIAAASPPSQPAVALSTIPGAVPITPPITTIAAAPPPSVTVGGSLSSVLGPPVPEIKVKEEVEPMDIMRPVSAVPPLATNTVSPSLALLANNLSMPTSDLPPGASPRKKPRKQQHVISTEEGDMMETNSTDDEKSTAKSLLVKAEKRKSPPKEYIDEEGVRYVPVRPRPPITLLRHYRNPWKAAYHHFQRYSDVRVKEEKKAMLQEIANQKGVSCRAQGWKVHLCAAQLLQLTNLEHDVYERLTNLQEGIIPKKKAATDDDLHRINELIQGNMQRCKLVMDQISEARDSMLKVLDHKDRVLKLLNKNGTVKKVSKLKRKEKV
binding [2]: binds

Continued, values first:

binding [1]: binds
Molecule: HDAC1, endogenous in MDA-MB-231 cells (from UniProt Q13547 1-482) (enzyme)

binding [1]: binds
B1: SAP180, endogenous in MDA-MB-231 cells (protein, UniProt Q4LE39 1-1312)
chain: MKALDEPPYLTVGTDVSAKYRGAFCEAKIKTAKRLVKVKVTFRHDSSTVEVQDDHIKGPLKVGAIVEVKNLDGAYQEAVINKLTDASWYTVVFDDGDEKTLRRSSLCLKGERHFAESETLDQLPLTNPEHFGTPVIGKKTNRGRRSNHIPEEESSSSSSDEDEDDRKQIDELLGKVVCVDYISLDKKKALWFPALVVCPDCSDEIAVKKDNILVRSFKDGKFTSVPRKDVHEITSDTAPKPDAVLKQAFEQALEFHKSRTIPANWKTELKEDSSSSEAEEEEEEEDDEKEKEDNSSEEEEEIEPFPEERENFLQQLYKFMEDRGTPINKRPVLGYRNLNLFKLFRLVHKLGGFDNIESGAVWKQVYQDLGIPVLNSAAGYNVKCAYKKYLYGFEEYCRSANIEFQMALPEKVVNKQCKECENVKEIKVKEENETEIKEIKMEEERNIIPREEKPIEDEIERKENIKPSLGSKKNLLESIPTHSDQEKEVNIKKPEDNENLDDKDDDTTRVDESLNIKVEAEEEKAKSGDETNKEEDEDDEEAEEEEEEEEEEEDEDDDDNNEEEEFECYPPGMKVQVRYGRGKNQKMYEASIKDSDVEGGEVLYLVHYCGWNVRYDEWIKADKIVRPADKNVPKIKHRKKIKNKLDKEKDKDEKYSPKNCKLRRLSKPPFQTNPSPEMVSKLDLTDAKNSDTAHIKSIEITSILNGLQASESSAEDSEQEDERGAQDMDNNGKEESKIDHLTNNRNDLISKEEQNSSSLLEENKVHADLVISKPVSKSPERLRKDIEVLSEDTDYEEDEVTKKRKDVKKDTTDKSSKPQIKRGKRRYCNTEECLKTGSPGKKEEKAKNKESLCMENSSNSSSDEDEEETKAKMTPTKKYNGLEEKRKSLRTTGFYSGFSEVAEKRIKLLNNSDERLQNSRAKDRKDVWSSIQGQWPKKTLKELFSDSDTEAAASPPHPAPEEGVAEESLQTVAEEESCSPSVELEKPPPVNVDSKPIEEKTVEVNDRKAEFPSSGSNSVLNTPPTTPESPSSVTVTEGSRQQSSVTVSEPLAPNQEEVRSIKSETDSTIEVDSVAGELQDLQSEGNSSPAGFDASVSSSSSNQPEPEHPEKACTGQKRVKDAQGGGSSSKKQKRSHKATVVNNKKKGKGTNSSDSEELSAGESITKSQPVKSVSTGMKSHSTKSPARTQSPGKCGKNGDKDPDLKEPSNRLPKVYKWSFQMSDLENMTSAERITILQEKLQEIRKHYLSLKSEVASIDRRRKRLKKKERESAATSSSSSSPSSSSITAAVMLTLAEPSMSSASQNGMSVECR
